The test system of the assay is Candida albicans ATCC 90028. The assay is described as follows: Antifungal in vitro MIC, Candida albicans. Type of assay: cell-based. Conditions: ATCC90028, percent inhibition >= 80%.

The structures appear in SMILES notation. In brackets after ≈: the same amount, converted by molar mass.

The values that follow come from US7390806B2, “Antibiotics containing borinic acid complexes and methods of use” (Anacor Pharmaceuticals, Inc., priority 2002, dated 2008).

On to `OC(Cn1cncn1)(Cn1cncn1)c1ccc(F)cc1F` [Fluconazole, reference compound], for which the MIC (commonly the lowest concentration found to suppress growth) was found to be 0.25 µg/mL (≈ 0.816 µM).
